Laboratory results from article PMC8016867.
No constants are given. Whether binding was seen depends on the method and setting. Binding seen in cells or lysates may run through a third protein. Some binding calls cover weakened binding; strength is not graded here.

By UniProt entry, the sequences of proteins in these tests, tags left out.
UniProt P48432: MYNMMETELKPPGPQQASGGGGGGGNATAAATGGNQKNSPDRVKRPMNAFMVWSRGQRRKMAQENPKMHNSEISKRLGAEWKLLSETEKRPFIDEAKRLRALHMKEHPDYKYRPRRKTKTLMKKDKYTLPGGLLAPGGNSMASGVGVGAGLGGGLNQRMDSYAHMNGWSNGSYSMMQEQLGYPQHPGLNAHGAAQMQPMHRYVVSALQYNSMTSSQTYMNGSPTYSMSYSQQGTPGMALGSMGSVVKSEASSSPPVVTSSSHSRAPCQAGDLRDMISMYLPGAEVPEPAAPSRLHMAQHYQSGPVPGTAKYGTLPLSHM
UniProt Q9R210: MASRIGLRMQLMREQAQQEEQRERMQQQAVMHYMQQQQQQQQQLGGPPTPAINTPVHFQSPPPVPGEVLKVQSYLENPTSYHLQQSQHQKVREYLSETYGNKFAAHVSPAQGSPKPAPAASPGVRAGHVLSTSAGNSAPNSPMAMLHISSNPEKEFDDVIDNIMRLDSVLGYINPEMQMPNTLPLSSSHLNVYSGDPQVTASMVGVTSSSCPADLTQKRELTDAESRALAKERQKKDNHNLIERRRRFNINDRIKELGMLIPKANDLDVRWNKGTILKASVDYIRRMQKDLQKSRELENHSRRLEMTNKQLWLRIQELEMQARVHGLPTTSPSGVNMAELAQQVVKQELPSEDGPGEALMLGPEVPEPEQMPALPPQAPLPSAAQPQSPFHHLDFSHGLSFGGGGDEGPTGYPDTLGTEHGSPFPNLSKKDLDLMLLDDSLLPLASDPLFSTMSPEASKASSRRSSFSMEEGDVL

Biological target: Sex-determining region Y-box2 (Sox2), endogenous in mESCs (mouse (endogenous in E14 mESCs)) (UniProt P48432)
Assay: co-IP; endogenous proteins; mESC lysates (1% Triton X-100, 100 mM NaCl, 20 mM Tris pH 7.5), indicated antibodies with protein A/G plus agarose beads, immunoblot

- binding: binds
Substance: Transcription factor EB (TFEB), endogenous in mESCs (from UniProt Q9R210 1-475)
